Article PMC11206525, “Structural Design, Anticancer Evaluation, and Molecular Docking of Newly Synthesized Ni(II) Complexes with ONS-Donor Dithiocarbazate Ligands” (Molecules, 2024)

Tested on: human breast cancer cell line MCF-7
Assay: MTT cytotoxicity assay, breast cancer MCF-7 cells
Assay type: cell-based
Settings: SI = IC50 in normal cells (MCF-10A)/IC50 in tumor cells (MCF-7)
Description: The measurement was performed using the MTT assay in cultures treated with increasing concentrations.
The effect of the compounds applied to breast cancer MCF-7 cells and breast epithelial MCF-10A cells was evaluated by measuring 3-(4,5-dimethylthiazol-2-yl)-2,5-diphenyl tetrazolium bromide (MTT) (Invitrogen, Waltham, MA, USA). All compounds were diluted in dimethylsulfoxide (DMSO) with a final DMSO concentration of 0.01% (0.01 mL/100 mL × 100 = 0.01% means 0.01 mL of DMSO to 99.99 mL of water) in all groups and untreated controls. Cells were seeded in 96-well plates at a density of 5 × 10^3 cells per well and incubated with compounds diluted in serial concentrations ranging from 0.29 µM to 150 µM. After 24, 48, and 72 h at 37 °C and 5% CO2, 10 µL of MTT (5 mg/mL) was added to each well and incubated for 4 h at 37 °C. The supernatant was then removed, and 100 µL/well of DMSO was added to dissolve any deposited formazan. The optical density was measured at 570 nm using a microplate reader (DR-200B-NM_Kasuaki, Tokyo, Japan).

SMILES: C=CCSC1=NN=C(C)c2ccccc2[O][Ni]([P](c2ccccc2)(c2ccccc2)c2ccccc2)[S]1 [(1), [Ni(L^1)PPh3]]
- SI (selectivity index) (48 h): 1.25
- SI (selectivity index) (72 h): 1.57
